Measurements reported in PubChem BioAssay AID1159584 (Peter MacCallum Cancer Centre, 2016).
Purpose: 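Genes that CDH1-null MCF10A cells selectively depend on to survive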 (primary screen). System: human MCF10A breast epithelial cells, parental and CDH1-null. Reagents: siRNA against human genes. Read-out: 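Cell viability by CellTiter-Glo ATP luminescence, each line scaled to the mean of mock wells across plates, then CDH1-null over parental ratio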. Scale: CDH1-null / parental viability ratio: higher = CDH1-null cells survive relatively better than parental.
The whole screen tested about 18,000 reagents; this is a random part of them. Not all columns of the deposit are shown. The record does not give: the amount of reagent, the time to read-out.

Target gene,CDH1-null / parental viability ratio
S100A10,1.35
KCNJ2,1.22
PPAN,0.93
BBS10,1.05
NUDT16,0.71
ZNF432,1.4
DERL3,1.13
SH3BP1,0.85
ZNF425,0.66
ARSA,1.1
CASP6,1.12
VPS4A,0.67
SCFD2,1
HECTD3,1.14
HNRNPA3,0.74

A stretch from the list above, for reference:
Target gene,CDH1-null / parental viability ratio
S100A10,1.35
KCNJ2,1.22
PPAN,0.93
BBS10,1.05
NUDT16,0.71
ZNF432,1.4

The listing continues.
Target gene,CDH1-null / parental viability ratio
ZNF491,1.09
LAMTOR2,0.95
CAPN9,1.2
RAB43,1.15
ADCK5,0.79
SLC35G2,0.94
ANXA2,1.08
IGDCC4,0.94
FXN,1.14
TCHHL1,1.04
SIK1,1.02
TUSC2,1.42
PNMA2,1.22
KLHL21,1.06
TET2,1.17
MKRN1,0.93
HSCB,0.93
NKD1,0.95
CCDC187,1.07
EEF1A2,1.04
GUCY1A2,0.94
BSN,1
CNGA3,1.18
HECW1,1.14
SIPA1,1.1
THPO,1.44
TGFB1I1,1.1
LNX1,0.64
AQP2,1.03
BCL2L14,1.08
LPIN1,1.09
